Results as given in article PMC9795622.
Results are given in words; binding and its absence hold for the method and conditions named. Binding seen in cells or lysates may run through a third protein. Some binding calls cover weakened binding; strength is not graded here. For some assays here: Tags and fused reporters may be left off the sequences shown.

Amino acid sequences for entries named in this document (tags omitted).
UniProt Q16531: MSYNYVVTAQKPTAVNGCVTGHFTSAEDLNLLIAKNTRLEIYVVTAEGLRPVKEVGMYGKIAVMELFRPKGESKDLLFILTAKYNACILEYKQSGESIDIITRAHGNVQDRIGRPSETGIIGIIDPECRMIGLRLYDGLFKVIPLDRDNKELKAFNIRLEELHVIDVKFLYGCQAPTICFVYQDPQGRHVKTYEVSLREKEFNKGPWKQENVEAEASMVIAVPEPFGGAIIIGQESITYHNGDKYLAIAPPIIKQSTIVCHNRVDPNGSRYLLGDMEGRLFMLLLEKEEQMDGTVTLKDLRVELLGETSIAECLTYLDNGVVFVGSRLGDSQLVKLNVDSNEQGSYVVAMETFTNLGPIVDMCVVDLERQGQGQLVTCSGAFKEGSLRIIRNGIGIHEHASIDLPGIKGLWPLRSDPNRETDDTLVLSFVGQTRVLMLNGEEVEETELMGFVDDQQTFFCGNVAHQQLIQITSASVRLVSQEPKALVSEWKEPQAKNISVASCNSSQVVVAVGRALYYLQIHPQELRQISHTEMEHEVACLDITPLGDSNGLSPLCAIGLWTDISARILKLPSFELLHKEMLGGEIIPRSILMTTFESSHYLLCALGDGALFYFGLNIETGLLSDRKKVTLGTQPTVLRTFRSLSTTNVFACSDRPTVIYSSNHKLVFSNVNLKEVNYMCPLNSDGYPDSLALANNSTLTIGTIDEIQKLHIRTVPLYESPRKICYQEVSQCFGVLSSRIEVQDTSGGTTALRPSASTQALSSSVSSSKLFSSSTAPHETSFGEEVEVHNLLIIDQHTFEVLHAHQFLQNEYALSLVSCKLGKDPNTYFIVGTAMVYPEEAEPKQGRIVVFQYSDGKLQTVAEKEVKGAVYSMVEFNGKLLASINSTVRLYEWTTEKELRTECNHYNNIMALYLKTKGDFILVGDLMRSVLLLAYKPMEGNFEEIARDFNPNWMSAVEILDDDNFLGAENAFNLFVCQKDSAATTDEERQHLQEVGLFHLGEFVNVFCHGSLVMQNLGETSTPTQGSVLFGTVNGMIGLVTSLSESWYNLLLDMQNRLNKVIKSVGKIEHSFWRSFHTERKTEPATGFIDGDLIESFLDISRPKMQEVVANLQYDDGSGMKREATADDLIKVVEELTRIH
UniProt Q09028: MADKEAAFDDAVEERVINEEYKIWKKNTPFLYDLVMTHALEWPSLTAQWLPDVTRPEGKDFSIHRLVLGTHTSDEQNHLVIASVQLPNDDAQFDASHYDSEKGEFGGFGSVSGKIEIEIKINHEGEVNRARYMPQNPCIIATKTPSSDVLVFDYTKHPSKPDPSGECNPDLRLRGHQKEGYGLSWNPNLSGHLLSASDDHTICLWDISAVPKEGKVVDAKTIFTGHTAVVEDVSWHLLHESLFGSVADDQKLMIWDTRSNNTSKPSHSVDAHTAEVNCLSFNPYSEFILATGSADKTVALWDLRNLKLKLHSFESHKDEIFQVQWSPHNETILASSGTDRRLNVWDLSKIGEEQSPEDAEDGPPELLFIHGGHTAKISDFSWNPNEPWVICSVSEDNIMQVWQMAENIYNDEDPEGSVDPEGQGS
UniProt Q86U44: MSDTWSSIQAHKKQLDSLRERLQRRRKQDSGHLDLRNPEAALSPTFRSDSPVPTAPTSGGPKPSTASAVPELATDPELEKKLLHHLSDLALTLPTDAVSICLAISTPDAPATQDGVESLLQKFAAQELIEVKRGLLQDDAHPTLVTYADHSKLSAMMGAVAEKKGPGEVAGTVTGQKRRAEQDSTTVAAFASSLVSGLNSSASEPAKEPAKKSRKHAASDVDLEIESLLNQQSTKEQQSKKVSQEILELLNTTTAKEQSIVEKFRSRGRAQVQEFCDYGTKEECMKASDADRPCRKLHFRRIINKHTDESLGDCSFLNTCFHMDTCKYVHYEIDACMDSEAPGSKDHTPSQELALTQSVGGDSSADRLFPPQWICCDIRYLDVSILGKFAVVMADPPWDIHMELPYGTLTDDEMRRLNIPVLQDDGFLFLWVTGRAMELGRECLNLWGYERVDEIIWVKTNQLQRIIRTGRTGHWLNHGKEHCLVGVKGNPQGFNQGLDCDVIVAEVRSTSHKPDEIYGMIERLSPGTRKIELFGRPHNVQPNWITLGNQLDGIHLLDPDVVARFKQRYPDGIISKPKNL
UniProt Q13620: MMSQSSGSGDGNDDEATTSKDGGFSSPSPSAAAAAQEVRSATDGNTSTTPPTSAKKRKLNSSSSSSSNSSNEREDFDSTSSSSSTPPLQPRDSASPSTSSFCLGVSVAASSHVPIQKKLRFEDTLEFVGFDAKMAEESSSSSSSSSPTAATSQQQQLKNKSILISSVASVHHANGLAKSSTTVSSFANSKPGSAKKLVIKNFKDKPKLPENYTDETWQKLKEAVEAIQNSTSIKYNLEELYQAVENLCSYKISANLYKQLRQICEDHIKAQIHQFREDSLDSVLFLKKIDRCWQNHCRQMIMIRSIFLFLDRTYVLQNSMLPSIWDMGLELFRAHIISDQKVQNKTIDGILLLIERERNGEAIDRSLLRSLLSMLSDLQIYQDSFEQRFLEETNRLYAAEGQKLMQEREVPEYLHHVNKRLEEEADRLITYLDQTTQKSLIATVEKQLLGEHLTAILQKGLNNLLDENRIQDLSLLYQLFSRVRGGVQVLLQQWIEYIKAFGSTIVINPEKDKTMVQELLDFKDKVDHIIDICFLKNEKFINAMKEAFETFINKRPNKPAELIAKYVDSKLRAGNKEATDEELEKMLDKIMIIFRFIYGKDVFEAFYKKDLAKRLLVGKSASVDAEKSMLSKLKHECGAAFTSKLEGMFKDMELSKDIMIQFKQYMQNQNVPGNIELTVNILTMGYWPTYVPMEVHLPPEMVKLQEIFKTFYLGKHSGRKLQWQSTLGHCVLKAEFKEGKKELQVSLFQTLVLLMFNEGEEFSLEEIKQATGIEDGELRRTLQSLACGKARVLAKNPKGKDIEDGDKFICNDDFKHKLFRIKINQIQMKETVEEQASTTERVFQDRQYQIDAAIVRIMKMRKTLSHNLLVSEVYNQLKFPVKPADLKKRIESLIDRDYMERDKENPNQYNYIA
UniProt Q9UBP6: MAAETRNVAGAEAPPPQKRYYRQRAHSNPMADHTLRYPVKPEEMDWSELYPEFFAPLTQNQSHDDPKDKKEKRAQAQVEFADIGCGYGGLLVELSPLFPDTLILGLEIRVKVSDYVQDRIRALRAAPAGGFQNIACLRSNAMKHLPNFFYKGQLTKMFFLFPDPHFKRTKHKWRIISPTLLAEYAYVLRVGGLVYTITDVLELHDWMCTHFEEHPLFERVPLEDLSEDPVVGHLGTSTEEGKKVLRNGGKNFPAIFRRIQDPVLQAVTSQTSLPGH

Experiments:
[1] = molecular target: T1, SET and MYND domain-containing protein 3 (SMYD3), endogenous (human (endogenous in LM3 and SK-HEP-1)) (UniProt Q9H7B4); experiment: co-IP; endogenous proteins; whole cell lysates of LM3 and SK-HEP-1 cells, primary antibody or normal IgG at 4 °C overnight, protein A/G magnetic beads 2 h at 4 °C, immunoblot
T1 sequence: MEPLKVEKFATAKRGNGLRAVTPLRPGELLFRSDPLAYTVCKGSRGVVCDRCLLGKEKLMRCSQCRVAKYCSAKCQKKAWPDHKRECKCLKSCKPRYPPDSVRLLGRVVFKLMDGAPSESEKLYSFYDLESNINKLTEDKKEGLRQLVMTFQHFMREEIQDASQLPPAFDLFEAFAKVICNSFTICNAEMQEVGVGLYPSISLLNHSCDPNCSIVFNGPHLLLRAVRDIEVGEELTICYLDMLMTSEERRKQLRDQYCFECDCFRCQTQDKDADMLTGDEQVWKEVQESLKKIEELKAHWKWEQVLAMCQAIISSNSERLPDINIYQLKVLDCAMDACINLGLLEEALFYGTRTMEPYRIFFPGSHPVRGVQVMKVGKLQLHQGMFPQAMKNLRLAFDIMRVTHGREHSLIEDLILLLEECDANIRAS

GST-fused SMYD3 = molecular target: T2, GST-fused SMYD3 (UniProt Q9H7B4); experiment: pull-down; about 10 ug GST fusion protein mixed with 5-8 uL in vitro transcribed/translated product in 0.8% BSA in PBS with protease inhibitors, glutathione-Sepharose beads 2 h at 4 °C, five washes, western blot; only the target purified
T2 sequence: T1 sequence

Substance	binding [1]	binding (GST-fused SMYD3)
DDB1 (from UniProt Q16531 1-1140)	binds	–
RBBP4, in vitro transcribed/translated (from UniProt Q09028 1-425)	–	binds
METTL3 (from UniProt Q86U44 1-580)	binds	–
CUL4B (from UniProt Q13620 1-913)	binds	–
METTL1 (from UniProt Q9UBP6 1-276)	binds	–
